In article PMC8813914, “The IGFBP3/TMEM219 pathway regulates beta cell homeostasis” (Nature Communications, 2022):
No constants are given. Whether binding was seen depends on the method and setting. In cells and extracts the contact can be indirect. Some entries that bind do so weakly or less than the wild type.

Molecular target: T1, TMEM219 (death receptor), endogenous in human beta cells (human (endogenous in Blox-5)) (UniProt Q86XT9)
T1 sequence: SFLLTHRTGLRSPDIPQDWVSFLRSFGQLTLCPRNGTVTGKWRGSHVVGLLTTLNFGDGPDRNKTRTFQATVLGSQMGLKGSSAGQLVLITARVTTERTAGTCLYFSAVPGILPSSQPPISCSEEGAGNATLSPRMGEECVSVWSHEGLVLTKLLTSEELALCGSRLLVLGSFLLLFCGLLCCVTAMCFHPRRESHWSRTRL
Experiment: co-IP; Blox-5 beta cells cultured with pooled T1D serum for 16 h, treated with the cross-linker DTSSP, lysed in NP-40 buffer (50 mM Tris pH 7.4, 250 mM NaCl, 5 mM EDTA); Dynabeads Protein G with polyclonal rabbit anti-TMEM219; blot with mouse anti-IGFBP3

With “serum IGFBP3 (of T1D patients' serum) (from UniProt P17936 28-291) (ligand)” the binding was “binds”.
